# Data reported in the supplement of paper PMC5949888.
# Most values lie at the floor of the assay. Slopes are relative: functional sequences can read slightly below zero.
# Test system: Saccharomyces cerevisiae PS128 hsf1 delta, HSF1(1-493) fusion
# Experiment: growth estimate (transactivation domain function in HSF1 fusion, heat-shock survival) (a.u. (slope of normalised read count over time)); higher = stronger growth at 37°C, i.e. more transactivation activity
# Conditions: library: random library
# Procedure: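 Random 60-nt DNA library encoding peptides of up to 20 aa, fused to the C-terminus of yeast HSF1 residues 1-493 (C-terminal TAD deleted) and expressed from the native HSF1 promoter on a CEN plasmid in hsf1-deleted S. cerevisiae PS128. Cells were selected at 37°C on -trp 5-FOA plates for 0, 2, 4, 6 and 8 days and amplicons were sequenced. Growth estimate is the slope of a robust linear fit of total-sum-normalised read counts (normalised to the first time point) over time, using at least 2 replicates. Sequences are classed functional (TAD activity) above a threshold of -0.13, set from stop-codon control sequences.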
row,Substance,growth estimate
1,DDDETCRDPRRATWMIDDID,-0.158
2,DDELGVMTLRDPLVGALAQS,< -0.25
3,DDFGIRRGVRSPRHLSIFYP,< -0.25
4,DDG,< -0.25
5,DDPCV,< -0.25
6,DDRITLLSEG,< -0.25
7,DEAGQTIVLGKKVRRRRVLE,< -0.25
8,DEDWGN,< -0.25
9,DEF,< -0.25
10,DEHEQ,< -0.25
11,DEKAVGRVLCRSFF,< -0.25
12,DELCLVGGGKSLQLGNRRYG,< -0.25
13,DELGWQRDT,< -0.25
14,DERGHPHSVGEVGLGP,< -0.25
15,DERSLNAASVTTHNDHSKLR,< -0.25
16,DEVIKGPADCWIKG,< -0.25
17,DEYSVFRPWRFMM,-0.235
18,DFDEGSLA,< -0.25
19,DFGAMPGIGREIRPPRLRGR,< -0.25
20,DFGWSDRQV,-0.245
21,DFLESSYSAGHSPELALQTA,< -0.25
22,DFLRRRVYIARLI,< -0.25
23,DFLTRVATDTPVAVQEPAPE,< -0.25
24,DFS,< -0.25
25,DFSIHPKGSLDATAGDRLLR,< -0.25

# A stretch taken from the entries so far, for reference:
row,Substance,growth estimate
15,DERSLNAASVTTHNDHSKLR,< -0.25
16,DEVIKGPADCWIKG,< -0.25
17,DEYSVFRPWRFMM,-0.235
18,DFDEGSLA,< -0.25

# (list continues)

row,Substance,growth estimate
1,DFSLLQHVRLAAVASLLTPR,< -0.25
2,DFVSPLLRRG,< -0.25
3,DGCVLRALVPPEVTVYFYTP,< -0.25
4,DGDSAKWRRPKSEAFHTPRG,< -0.25
5,DGER,< -0.25
6,DGEYTQCKTTGGKVRLQS,< -0.25
7,DGFVLVTNRLDSLVLSDL,< -0.25
8,DGGDRVTVTGVICARWDRPG,< -0.25
9,DGHQRRSASTCGASPGIGAN,< -0.25
10,DGIFVGVKDRHYGN,< -0.25
11,DGIHGGDHPVKAWHSSLDT,< -0.25
12,DGKAKTP,< -0.25
13,DGLG,< -0.25
14,DGLLMDLVASNPALSASIAC,< -0.25
15,DGLLTTSSRVGQVKDLPVSN,< -0.25
16,DGLVMVHGQLVWSFLVIFQG,< -0.25
17,DGLVTNLPPSHDAFHASTSY,< -0.25
18,DGNLHLGNGANSRKLRGK,< -0.25
19,DGQDCVITARFPSALTLCV,< -0.25
20,DGR,< -0.25
21,DGRGQLMRFWDGTCSNLYSI,< -0.25
22,DGRL,< -0.25
23,DGRPGESSVICSSLKYVPLG,< -0.25
24,DGSRHRPLCRGKSPE,< -0.25
25,DGSRRVKYAQ,< -0.25

row,Substance,growth estimate
1,DGSWRMLGGDAEDKVGIRSL,< -0.25
2,DGTLVAVTPIN,< -0.25
3,DGTLVVG,< -0.25
4,DGVG,< -0.25
5,DGVVMGSLAGPSCKSVYHSF,< -0.25
6,DGVWRNMFTGVISRVISSAG,< -0.25
7,DGYAPVADKESGNYWRY,< -0.25
8,DGYWSVGDIIIGRNSGPFLN,< -0.25
9,DHDKVLTPKNSTVRANDHVY,< -0.25
10,DHL,< -0.25
11,DHLCPADVSTDRNGVCSANV,< -0.25
12,DHLQCGSTFLLGTTDS,< -0.25
13,DHQSPPE,< -0.25
14,DHYAGVR,< -0.25
15,DIAAPGGPCKSLGIW,< -0.25
16,DIAD,< -0.25
17,DIAGRS,< -0.25
18,DIATY,< -0.25
19,DICAIRTSHGVVTSTAVQGV,< -0.25
20,DIDGS,< -0.25
21,DIEEPPWGAVTGAEITNLTR,< -0.25
22,DIFPAGIT,< -0.25
23,DILFKRVGHTAEGDAGYHCH,< -0.25
24,DIQKFRRVSGIVECV,< -0.25
25,DIRDVRPFASLVIQNRI,< -0.25

row,Substance,growth estimate
1,DIRRCLRNN,< -0.25
2,DISGSRKSGHFTITARRGGS,< -0.25
3,DISRPDHVRPVNTLAAEQGL,< -0.25
4,DISSFV,< -0.25
5,DIVD,< -0.25
6,DKFGRIAHYI,< -0.25
7,DKKLCLADRAAVTLIRSRRS,< -0.25
8,DKLAILRVLRM,< -0.25
9,DKLQRLRVIPIVLLHNGHSA,< -0.25
10,DKLYFEGTRFASSRDG,< -0.25
11,DKSRN,-0.243
12,DLALRLKFYVVLGCWVLREV,< -0.25
13,DLEVSVEDCAAGVLPPFSGD,< -0.25
14,DLEYL,< -0.25
15,DLGNSMDIARYTVSAGEEIG,< -0.25
16,DLGTVQIYFTGSRTRCRRSA,< -0.25
17,DLGYECAETWIQCISVWVSS,< -0.25
18,DLHAGRTVGDVLCNAMPSFD,< -0.25
19,DLHWFATSLGNATR,-0.0874
20,DLIAGRCFFLHNVACKIGNI,-0.246
21,DLIF,< -0.25
22,DLIQTSLSVKGRA,< -0.25
23,DLITSLYLETAV,< -0.25
